Measurements taken from PubChem BioAssay AID262 (DTP/NCI, 2004).
The list is a part of this screen's results and no random one: it gathers some chemical classes. Not every dose and run of a compound is shown. T/C is the treated group as % of the vehicle group. Schedule codes are those of the source, read here as Q, the interval in days (D) or hours (H), X, the number of doses. Some entries give survivors of the animals treated and no T/C: the source files T/C as zero there, which appears to mark a toxic dose or a test without result, not a measured value. Counts of survivors are from the toxicity check, whose day is not always given; animals may have died later.

Test system: LX-1 lung xenograft sc, nude mice, tumor weight
Assay: NCI In Vivo Anticancer Drug Screen. Data for tumor model Human Lung LX-1 Xenograft (subcutaneous) in NU/NU Swiss (nude) mice
Conditions: T/C endpoint: optimum tumor weight change, schedule: Q04DX003 (ip), higher T/C = larger tumour
Method: The antitumor activity of compounds was measured in mice bearing transplantable tumors. Survival or tumor size were measured and the results are expressed as the measurement made in the treated group (T) divided by the measurement made in the vehicle treated control group (C). The tumor model used in this assay is Human Lung LX-1 Xenograft (subcutaneous) in NU/NU Swiss (nude) mice

Structure (SMILES): ClCCN(CCCl)c1ccccc1
- T/C (dose: 50.0 mg/kg/injection, vehicle: saline with Tween-80, evaluated on day 34): 84 % of control
- survivor count (dose: 100.0 mg/kg/injection, vehicle: saline with Tween-80): 0 of 5 on day 36
- survivor count (dose: 200.0 mg/kg/injection, vehicle: saline with Tween-80): 0 of 5 on day 36

Structure (SMILES): CC1=CC(=O)C(N(CCCl)CCCl)=CC1=O
- T/C (dose: 3.13 mg/kg/injection, vehicle: Klucel (hydroxypropylcellulose) (HPC), evaluated on day 39): 117 % of control

Structure (SMILES): C[N+](CCCl)(CCCl)Cc1ccc([N+](=O)[O-])cc1
- T/C (dose: 12.5 mg/kg/injection, vehicle: saline, evaluated on day 34): 82 % of control
- T/C (dose: 25.0 mg/kg/injection, vehicle: saline, evaluated on day 34): 87 % of control
- T/C (dose: 50.0 mg/kg/injection, vehicle: saline, evaluated on day 34): 70 % of control
